Test results: the supplement of paper PMC10849652
Some of the results follow.

Chains of the proteins cited; added tags and fusions are not shown. Lines headed by an entry give the natural chain unless they say otherwise; changes in a name come on top.
UniProt Q9UGM3: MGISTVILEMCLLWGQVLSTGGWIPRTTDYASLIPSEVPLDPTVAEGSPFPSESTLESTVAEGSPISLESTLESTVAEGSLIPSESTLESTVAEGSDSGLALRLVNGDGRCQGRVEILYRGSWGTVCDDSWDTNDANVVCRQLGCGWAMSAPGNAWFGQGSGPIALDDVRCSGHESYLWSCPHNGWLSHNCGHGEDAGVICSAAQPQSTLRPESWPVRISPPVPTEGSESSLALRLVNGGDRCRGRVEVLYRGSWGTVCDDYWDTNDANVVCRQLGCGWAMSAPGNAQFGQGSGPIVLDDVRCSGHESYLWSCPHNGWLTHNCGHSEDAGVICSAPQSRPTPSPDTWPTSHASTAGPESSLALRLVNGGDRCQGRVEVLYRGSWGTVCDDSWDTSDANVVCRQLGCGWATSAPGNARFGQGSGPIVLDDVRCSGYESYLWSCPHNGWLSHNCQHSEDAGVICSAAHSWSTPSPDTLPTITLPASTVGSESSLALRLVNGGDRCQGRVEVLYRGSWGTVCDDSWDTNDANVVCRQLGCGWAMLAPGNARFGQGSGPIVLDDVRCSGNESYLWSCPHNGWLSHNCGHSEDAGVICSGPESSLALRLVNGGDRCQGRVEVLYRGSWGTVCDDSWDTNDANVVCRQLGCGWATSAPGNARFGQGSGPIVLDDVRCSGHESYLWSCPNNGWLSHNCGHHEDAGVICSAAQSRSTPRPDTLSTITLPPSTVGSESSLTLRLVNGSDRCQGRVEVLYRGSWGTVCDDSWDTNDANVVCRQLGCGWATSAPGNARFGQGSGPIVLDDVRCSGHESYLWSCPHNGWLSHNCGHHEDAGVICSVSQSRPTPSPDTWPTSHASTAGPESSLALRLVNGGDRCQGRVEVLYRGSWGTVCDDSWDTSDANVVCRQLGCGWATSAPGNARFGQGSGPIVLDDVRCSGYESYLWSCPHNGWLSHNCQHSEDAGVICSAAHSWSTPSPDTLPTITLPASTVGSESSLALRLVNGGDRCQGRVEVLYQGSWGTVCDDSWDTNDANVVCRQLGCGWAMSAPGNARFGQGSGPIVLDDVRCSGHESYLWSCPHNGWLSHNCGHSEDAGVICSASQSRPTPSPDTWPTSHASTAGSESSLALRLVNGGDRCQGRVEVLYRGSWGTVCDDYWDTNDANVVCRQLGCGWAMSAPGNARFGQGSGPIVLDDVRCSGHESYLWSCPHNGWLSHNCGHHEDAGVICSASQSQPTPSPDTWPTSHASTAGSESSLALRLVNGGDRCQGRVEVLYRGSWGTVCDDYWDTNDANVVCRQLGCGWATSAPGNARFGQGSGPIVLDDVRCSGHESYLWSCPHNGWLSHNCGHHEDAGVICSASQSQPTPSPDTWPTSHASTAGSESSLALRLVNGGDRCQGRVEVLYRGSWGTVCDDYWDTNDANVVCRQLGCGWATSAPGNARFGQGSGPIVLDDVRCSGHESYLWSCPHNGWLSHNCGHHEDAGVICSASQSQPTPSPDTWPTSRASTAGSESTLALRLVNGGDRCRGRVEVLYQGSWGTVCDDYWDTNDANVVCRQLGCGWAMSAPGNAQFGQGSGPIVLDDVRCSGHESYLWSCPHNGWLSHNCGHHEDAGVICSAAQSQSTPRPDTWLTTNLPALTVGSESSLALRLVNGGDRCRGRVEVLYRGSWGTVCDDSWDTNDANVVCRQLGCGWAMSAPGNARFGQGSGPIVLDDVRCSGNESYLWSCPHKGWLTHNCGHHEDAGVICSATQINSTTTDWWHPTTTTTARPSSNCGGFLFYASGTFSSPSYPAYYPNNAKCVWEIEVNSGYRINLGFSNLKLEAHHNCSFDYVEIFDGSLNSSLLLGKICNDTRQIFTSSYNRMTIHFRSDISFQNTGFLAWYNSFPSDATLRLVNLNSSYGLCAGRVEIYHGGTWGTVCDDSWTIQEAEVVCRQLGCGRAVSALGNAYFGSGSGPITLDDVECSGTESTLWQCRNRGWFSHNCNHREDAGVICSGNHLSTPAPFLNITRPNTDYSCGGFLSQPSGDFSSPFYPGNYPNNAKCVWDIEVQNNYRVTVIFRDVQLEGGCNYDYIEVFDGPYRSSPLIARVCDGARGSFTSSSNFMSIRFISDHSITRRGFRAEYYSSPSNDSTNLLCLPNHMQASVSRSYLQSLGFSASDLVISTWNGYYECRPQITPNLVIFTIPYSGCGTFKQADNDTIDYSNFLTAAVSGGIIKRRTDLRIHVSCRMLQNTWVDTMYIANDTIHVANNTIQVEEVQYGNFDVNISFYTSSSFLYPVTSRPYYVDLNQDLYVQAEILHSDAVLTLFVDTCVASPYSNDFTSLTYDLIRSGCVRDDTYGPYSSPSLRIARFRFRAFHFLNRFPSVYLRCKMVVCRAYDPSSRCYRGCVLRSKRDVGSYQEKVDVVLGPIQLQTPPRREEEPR
UniProt P23743: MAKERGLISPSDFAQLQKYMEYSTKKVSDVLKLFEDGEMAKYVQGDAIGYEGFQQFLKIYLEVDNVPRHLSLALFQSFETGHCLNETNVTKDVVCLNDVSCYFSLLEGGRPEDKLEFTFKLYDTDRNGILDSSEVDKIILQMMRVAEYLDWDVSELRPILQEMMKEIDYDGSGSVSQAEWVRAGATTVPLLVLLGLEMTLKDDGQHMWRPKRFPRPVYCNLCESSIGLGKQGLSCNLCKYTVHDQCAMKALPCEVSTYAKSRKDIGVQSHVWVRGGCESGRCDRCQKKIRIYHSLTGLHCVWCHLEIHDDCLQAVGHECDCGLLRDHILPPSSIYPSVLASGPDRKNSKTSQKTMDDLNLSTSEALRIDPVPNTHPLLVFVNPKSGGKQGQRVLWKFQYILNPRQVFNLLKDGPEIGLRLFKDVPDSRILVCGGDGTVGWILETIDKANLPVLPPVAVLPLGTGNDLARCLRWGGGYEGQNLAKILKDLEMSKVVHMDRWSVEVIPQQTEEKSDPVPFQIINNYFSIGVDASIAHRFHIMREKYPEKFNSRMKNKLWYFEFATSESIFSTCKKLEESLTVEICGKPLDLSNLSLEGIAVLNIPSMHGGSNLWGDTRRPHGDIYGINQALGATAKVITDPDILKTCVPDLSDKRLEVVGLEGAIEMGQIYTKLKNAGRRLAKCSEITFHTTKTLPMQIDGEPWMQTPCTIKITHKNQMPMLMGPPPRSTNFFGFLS
UniProt Q6ZN54: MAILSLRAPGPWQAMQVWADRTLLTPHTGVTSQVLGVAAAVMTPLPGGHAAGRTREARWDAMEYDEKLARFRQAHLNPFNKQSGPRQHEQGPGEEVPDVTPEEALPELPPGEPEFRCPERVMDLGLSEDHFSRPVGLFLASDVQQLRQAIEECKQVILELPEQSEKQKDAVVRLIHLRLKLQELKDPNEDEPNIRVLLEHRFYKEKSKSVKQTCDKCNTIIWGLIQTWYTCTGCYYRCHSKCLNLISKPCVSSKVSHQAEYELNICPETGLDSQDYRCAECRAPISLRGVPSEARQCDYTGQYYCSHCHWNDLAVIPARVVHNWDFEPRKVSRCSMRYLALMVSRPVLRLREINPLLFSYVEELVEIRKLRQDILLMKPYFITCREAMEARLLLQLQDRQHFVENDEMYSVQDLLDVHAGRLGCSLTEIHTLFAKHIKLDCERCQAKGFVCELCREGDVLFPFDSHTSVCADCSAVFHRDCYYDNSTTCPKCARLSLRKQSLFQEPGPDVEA
UniProt O95057: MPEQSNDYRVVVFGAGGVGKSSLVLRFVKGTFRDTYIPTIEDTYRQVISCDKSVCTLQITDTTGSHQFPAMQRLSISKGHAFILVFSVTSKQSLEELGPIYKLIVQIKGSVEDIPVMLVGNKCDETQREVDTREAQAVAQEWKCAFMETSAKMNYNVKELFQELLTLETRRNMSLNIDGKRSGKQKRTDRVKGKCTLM
UniProt O15121: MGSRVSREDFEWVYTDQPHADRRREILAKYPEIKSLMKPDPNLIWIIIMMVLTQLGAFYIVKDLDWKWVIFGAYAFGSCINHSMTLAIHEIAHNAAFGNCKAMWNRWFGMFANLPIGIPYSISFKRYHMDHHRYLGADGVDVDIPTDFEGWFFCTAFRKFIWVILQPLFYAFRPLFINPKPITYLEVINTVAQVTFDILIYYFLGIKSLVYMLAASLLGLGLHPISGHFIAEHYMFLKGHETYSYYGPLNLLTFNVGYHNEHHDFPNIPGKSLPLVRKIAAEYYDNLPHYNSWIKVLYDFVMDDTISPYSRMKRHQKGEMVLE
UniProt Q08345: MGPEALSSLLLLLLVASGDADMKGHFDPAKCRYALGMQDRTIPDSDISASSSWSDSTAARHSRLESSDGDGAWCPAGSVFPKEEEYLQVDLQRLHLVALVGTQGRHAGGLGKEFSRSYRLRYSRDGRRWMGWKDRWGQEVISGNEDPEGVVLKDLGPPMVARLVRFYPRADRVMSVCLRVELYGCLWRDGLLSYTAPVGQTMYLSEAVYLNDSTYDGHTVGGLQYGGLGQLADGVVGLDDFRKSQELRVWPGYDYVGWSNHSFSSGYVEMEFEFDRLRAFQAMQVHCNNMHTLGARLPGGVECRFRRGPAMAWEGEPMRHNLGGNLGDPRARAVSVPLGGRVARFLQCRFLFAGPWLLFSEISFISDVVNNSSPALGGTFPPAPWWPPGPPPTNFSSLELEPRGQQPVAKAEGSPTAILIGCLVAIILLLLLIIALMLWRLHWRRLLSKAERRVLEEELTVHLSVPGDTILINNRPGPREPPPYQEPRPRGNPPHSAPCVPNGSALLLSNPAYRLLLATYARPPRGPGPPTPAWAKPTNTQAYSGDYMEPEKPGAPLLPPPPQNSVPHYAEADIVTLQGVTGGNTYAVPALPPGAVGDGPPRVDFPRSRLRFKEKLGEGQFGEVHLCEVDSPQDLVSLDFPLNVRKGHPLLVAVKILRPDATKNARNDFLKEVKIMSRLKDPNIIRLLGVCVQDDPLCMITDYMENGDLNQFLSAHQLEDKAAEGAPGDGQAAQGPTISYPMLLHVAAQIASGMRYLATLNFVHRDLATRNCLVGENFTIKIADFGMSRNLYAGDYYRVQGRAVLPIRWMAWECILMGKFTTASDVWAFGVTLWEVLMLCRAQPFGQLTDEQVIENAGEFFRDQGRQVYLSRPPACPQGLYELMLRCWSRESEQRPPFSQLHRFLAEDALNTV
UniProt Q16531, whole entry, looked up: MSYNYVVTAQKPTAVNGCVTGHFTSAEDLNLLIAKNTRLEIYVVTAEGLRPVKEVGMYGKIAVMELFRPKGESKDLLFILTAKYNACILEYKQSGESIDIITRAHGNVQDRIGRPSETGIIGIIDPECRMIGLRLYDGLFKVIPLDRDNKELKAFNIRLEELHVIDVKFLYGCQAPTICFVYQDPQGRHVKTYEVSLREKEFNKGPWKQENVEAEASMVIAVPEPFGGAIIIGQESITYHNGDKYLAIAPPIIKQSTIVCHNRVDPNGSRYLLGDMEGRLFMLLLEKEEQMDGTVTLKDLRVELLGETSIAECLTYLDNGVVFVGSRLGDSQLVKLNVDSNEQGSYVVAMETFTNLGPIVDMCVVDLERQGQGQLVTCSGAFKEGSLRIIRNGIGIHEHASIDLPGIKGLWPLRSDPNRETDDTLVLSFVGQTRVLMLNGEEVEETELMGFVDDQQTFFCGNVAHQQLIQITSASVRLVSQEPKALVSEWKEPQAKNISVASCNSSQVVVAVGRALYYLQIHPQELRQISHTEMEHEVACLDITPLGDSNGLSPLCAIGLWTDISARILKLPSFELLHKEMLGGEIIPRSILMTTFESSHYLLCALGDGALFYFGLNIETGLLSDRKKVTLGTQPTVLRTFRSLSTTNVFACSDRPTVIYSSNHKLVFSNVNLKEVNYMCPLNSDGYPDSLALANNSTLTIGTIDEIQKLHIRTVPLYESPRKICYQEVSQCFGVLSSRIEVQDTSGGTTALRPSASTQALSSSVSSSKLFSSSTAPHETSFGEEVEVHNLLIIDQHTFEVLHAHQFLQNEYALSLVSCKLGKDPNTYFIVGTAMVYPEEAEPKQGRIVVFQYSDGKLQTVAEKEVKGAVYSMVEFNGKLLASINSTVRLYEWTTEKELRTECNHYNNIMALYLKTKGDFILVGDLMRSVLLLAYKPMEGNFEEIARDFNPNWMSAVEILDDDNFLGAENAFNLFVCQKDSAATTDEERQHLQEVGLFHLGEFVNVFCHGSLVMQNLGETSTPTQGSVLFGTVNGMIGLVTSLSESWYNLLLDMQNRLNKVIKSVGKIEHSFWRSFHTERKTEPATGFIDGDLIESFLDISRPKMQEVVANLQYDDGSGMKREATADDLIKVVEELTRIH
UniProt O00273: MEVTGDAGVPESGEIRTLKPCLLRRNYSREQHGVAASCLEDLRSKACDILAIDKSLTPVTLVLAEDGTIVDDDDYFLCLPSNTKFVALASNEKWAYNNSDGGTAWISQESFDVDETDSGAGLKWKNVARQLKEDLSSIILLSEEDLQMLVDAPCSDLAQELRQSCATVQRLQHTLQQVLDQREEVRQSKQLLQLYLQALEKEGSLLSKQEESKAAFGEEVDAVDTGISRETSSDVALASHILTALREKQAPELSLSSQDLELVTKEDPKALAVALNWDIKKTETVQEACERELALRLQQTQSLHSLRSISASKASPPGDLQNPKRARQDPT

Legend:
Assay in all cases: log2 fold change, soluble protein after heating vs DMSO (PISA); higher = thermal stabilisation; K562 cells, 10 uM, 30 min; active = over 0.2 and 3.5 SD of the protein, either way, in both replicates (recomputed)
gandotinib = compound: Cc1cc(Nc2cc(CN3CCOCC3)c3nc(C)c(Cc4ccc(Cl)cc4F)n3n2)n[nH]1 [gandotinib]
Method in brief: (§1)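 Soluble protein was defined as the supernatant after 21,000xg for 90 min. It came from K562 cells at 2×10^6 cells/mL given 10 μM compound for 30 min, heated in aliquots for 3 min across 48°C-58°C, pooled, and extracted in PBS with 0.5% NP-40 at 4°C, and was quantified by TMTpro 16plex LC-MS/MS with equalised channel sums. Thermal stability against control samples, from duplicates, is reported as log2 fold change.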

[1] = compound: Cc1cccc(CC(=O)N2CCc3c2ccc(-c2cn(C)c4ncnc(N)c24)c3F)n1
Method in brief: as §1

[2] = compound: C[C@H](C1=CC=C(C=C1)C(=O)NC2=C3C=CNC3=NC=C2)N
Method in brief: as §1

duvelisib = compound: C[C@H](Nc1ncnc2nc[nH]c12)c1cc2cccc(Cl)c2c(=O)n1-c1ccccc1 [duvelisib]
Method in brief: as §1

tozasertib = compound: Cc1cc(Nc2cc(N3CCN(C)CC3)nc(Sc3ccc(NC(=O)C4CC4)cc3)n2)n[nH]1 [tozasertib]
Method in brief: as §1

[3] = compound: Cc1cc(SCc2sc(-c3ccc(C(F)(F)F)cc3)nc2C)ccc1OCC(=O)O
Method in brief: as §1

bafetinib = compound: Cc1ccc(NC(=O)c2ccc(CN3CC[C@H](N(C)C)C3)c(C(F)(F)F)c2)cc1Nc1nccc(-c2cncnc2)n1 [bafetinib]
Method in brief: as §1

dasatinib = compound: Cc1nc(Nc2ncc(C(=O)Nc3c(C)cccc3Cl)s2)cc(N2CCN(CCO)CC2)n1 [dasatinib]
Method in brief: as §1

[4] = compound: Cn1cc(-c2ccc3c(c2)CCN3C(=O)Cc2cccc(C(F)(F)F)c2)c2c(N)ncnc21
Method in brief: as §1

tipifarnib = compound: Cn1cncc1[C@@](N)(c1ccc(Cl)cc1)c1ccc2c(c1)c(-c1cccc(Cl)c1)cc(=O)n2C [tipifarnib]
Method in brief: as §1

[5] = compound: CS(=O)(=O)c1ccc(-c2cnc(N)c(C(=O)Nc3ccccc3)n2)cc1
Method in brief: as §1

[6] = compound: C[C@@H]1COCCN1C2=NC(=NC(=C2)C3(CC3)S(=O)(=O)C)C4=C5C=CNC5=CC=C4
Method in brief: as §1

nilotinib = compound: Cc1cn(-c2cc(NC(=O)c3ccc(C)c(Nc4nccc(-c5cccnc5)n4)c3)cc(C(F)(F)F)c2)cn1 [nilotinib]
Method in brief: as §1

[7] = compound: Cc1nc(Nc2n[nH]c3c2CN(C(=O)N[C@H](CN(C)C)c2ccccc2)C3(C)C)c2sccc2n1
Method in brief: as §1

[8] = compound: Cc1ncc(-c2ccnc(Nc3ccc(S(C)(=O)=O)cc3)n2)n1C(C)C
Method in brief: as §1

mubritinib = compound: FC(F)(F)c1ccc(/C=C/c2nc(COc3ccc(CCCCn4ccnn4)cc3)co2)cc1 [mubritinib]
Method in brief: as §1

ispinesib = compound: Cc1ccc(C(=O)N(CCCN)[C@@H](c2nc3cc(Cl)ccc3c(=O)n2Cc2ccccc2)C(C)C)cc1 [ispinesib]
Method in brief: as §1

[9] = compound: Cn1cc(-c2ccc3nnc(C(F)(F)c4ccc5ncccc5c4)n3n2)cn1
Method in brief: as §1

crizotinib = compound: C[C@@H](Oc1cc(-c2cnn(C3CCNCC3)c2)cnc1N)c1c(Cl)ccc(F)c1Cl [crizotinib]
Method in brief: as §1

doramapimod = compound: Cc1ccc(-n2nc(C(C)(C)C)cc2NC(=O)Nc2ccc(OCCN3CCOCC3)c3ccccc23)cc1 [doramapimod]
Method in brief: as §1

Measured: log2 fold change

DKK4 (UniProt Q9UBT3)
inactive: gandotinib 0.397 | [1] -0.745

DESI1 (UniProt Q6ICB0)
inactive: [2] 0.006 | duvelisib 0.096 | tozasertib 0.044 | [3] 0.166 | bafetinib 0.003 | dasatinib -0.131 | [4] -0.049 | tipifarnib -0.114

DMBT1 isoform 6 (UniProt Q9UGM3)
inactive: [5] -0.038 | [6] 0.221 | bafetinib -0.126 | nilotinib -0.004 | [7] -0.114 | [8] 0.648 | mubritinib 0.064

DGKA (UniProt P23743)
inactive: [5] 0.339 | [6] 0.094 | duvelisib 0.226 | [3] -0.171 | ispinesib 0.111 | bafetinib -0.265 | dasatinib 0.151 | [9] -0.415 | tipifarnib -0.168 | mubritinib -0.005

DDX55 (UniProt Q8NHQ9)
inactive: [5] 0.088 | tozasertib -0.12 | bafetinib 0.025

DHX32 (UniProt Q7L7V1)
inactive: [6] -0.008 | tozasertib -0.139

DEF8 (UniProt Q6ZN54)
inactive: bafetinib 0.033 | tipifarnib 0.045

DIRAS1 (UniProt O95057)
inactive: tozasertib -0.064

DHX34 (UniProt Q14147)
inactive: crizotinib 0.032 | [6] -0.233 | duvelisib -0.019 | tozasertib 0.006 | [3] 0.078 | doramapimod 0.046 | ispinesib -0.16 | dasatinib -0.357 | [9] -0.122

DEGS1 (UniProt O15121)
inactive: [5] 0.064 | [6] 0.062 | [2] -0.047 | gandotinib 0.138 | [3] -0.078 | bafetinib -0.032 | [1] -0.029 | nilotinib 0.04 | [7] -0.021 | dasatinib -0.1 | [8] -0.031 | [4] -0.07 | tipifarnib -0.026 | mubritinib 0.087

DLC1 (UniProt Q96QB1)
inactive: crizotinib 0.046 | [6] 0.167 | gandotinib -0.073 | doramapimod -0.322 | [1] -0.231 | nilotinib 0.094 | [7] 0.148 | [8] -0.112 | mubritinib 0.043

DHTKD1 (UniProt Q96HY7)
inactive: crizotinib 0.241 | [6] 0.137 | tozasertib -0.065 | doramapimod -0.047 | bafetinib 0.108

DDR1 isoform 5 (UniProt Q08345)
inactive: crizotinib -0.266 | [6] 0.067 | [2] -0.018 | gandotinib -0.577 | ispinesib -0.109 | [1] 0.305 | [4] 0.185 | [9] -0.002

Random excerpt: two records from the list, in no set order.
DKK4 (UniProt Q9UBT3)
inactive: gandotinib 0.397 | [1] -0.745

DIRAS1 (UniProt O95057)
inactive: tozasertib -0.064

More records follow:

DDB1 isoform 2 (UniProt Q16531)
inactive: [5] 0.009 | [6] 0.118 | gandotinib -0.228 | bafetinib -0.286 | [1] -0.094

DHRSX (UniProt Q8N5I4)
inactive: crizotinib 0.171 | [2] -0.01 | gandotinib 0.08 | doramapimod -0.162 | bafetinib -0.009 | [1] -0.098 | nilotinib -0.034 | [7] 0.006 | [8] -0.167 | [4] 0.021 | mubritinib 0.03

DFFA isoform 2 (UniProt O00273)
inactive: crizotinib -0.019 | [6] 0.219 | duvelisib -0.195 | [3] -0.003 | doramapimod 0.019 | bafetinib -0.058 | nilotinib 0.045 | [7] -0.088 | dasatinib 0 | [8] -0.006 | mubritinib -0.032

DHX37 (UniProt Q8IY37)
inactive: [6] -0.037

DDX11L8 (UniProt A8MPP1)
inactive: [2] -0.268 | duvelisib -0.069 | [3] -0.145 | bafetinib -0.031 | dasatinib 0.106 | [4] -0.014 | tipifarnib -0.007

DEPDC5 (UniProt O75140)
inactive: crizotinib 0.088 | duvelisib -0.109 | [3] 0.038 | doramapimod 0.203 | dasatinib 0.171

DDX28 (UniProt Q9NUL7)
inactive: [2] 0.232 | [4] -0.105

DDX39B (UniProt H0Y400)
inactive: [6] -0.136

DMTN isoform 2 (UniProt Q08495)
inactive: crizotinib -0.063 | tozasertib -0.273 | doramapimod 0.024 | ispinesib 0 | bafetinib -0.096 | nilotinib -0.028 | [7] -0.131 | [8] 0.092 | [9] -0.143
